# Literature values, collected in patent US7858611B2, “Neurogenesis by modulating angiotensin” (BrainCells Inc., priority 2006, dated 2010).
# At least one read-out could not be matched to a standard name with certainty.
# Conditions: cited from earlier work
row,SMILES,permeability across the blood-brain barrier
1,"N[C@](CC1c2ccccc2Oc2ccccc21)(C(=O)O)[C@H]1C[C@@H]1C(=O)O [LY341495, (2S)-2-amino-2-(1S,2S-2-carboxycycloprop-1-yl)-3-(xanth-9-yl)propanoic acid]",readily permeably
2,"N[C@@]1(C(=O)O)CO[C@H]2[C@H](C(=O)O)[C@H]21 [LY379268, (−)-2-oxa-4-aminobicyclohexane-4,6-dicarboxylic acid]",readily permeable
